Results are given in words; binding and its absence hold for the method and conditions named. In cells and extracts the contact can be indirect. Here binding means that the protein was enriched with, or labelled near, the bait; the list need not be complete. Where a sequence is shown, tags or fusion partners need not be part of it.
T1: FLAG/HA-tagged AATF (apoptosis antagonizing transcription factor) (human) (UniProt Q9NY61)
T1 sequence: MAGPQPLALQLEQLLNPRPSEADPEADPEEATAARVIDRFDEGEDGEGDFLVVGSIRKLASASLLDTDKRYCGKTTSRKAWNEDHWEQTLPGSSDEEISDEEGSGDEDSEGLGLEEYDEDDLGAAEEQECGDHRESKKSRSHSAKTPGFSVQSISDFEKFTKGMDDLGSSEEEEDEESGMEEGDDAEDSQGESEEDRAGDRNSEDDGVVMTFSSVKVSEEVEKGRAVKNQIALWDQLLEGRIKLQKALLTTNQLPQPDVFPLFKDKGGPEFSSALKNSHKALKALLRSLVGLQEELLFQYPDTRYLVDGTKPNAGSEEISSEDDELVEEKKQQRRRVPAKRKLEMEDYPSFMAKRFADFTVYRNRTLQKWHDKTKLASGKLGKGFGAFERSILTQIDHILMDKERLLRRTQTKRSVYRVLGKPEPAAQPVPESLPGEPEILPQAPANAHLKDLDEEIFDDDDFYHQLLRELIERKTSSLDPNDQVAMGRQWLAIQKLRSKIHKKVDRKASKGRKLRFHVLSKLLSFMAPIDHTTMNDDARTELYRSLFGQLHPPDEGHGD

Sequences of proteins named here, by UniProt entry; tags and fusion partners are left off.
UniProt Q9H583: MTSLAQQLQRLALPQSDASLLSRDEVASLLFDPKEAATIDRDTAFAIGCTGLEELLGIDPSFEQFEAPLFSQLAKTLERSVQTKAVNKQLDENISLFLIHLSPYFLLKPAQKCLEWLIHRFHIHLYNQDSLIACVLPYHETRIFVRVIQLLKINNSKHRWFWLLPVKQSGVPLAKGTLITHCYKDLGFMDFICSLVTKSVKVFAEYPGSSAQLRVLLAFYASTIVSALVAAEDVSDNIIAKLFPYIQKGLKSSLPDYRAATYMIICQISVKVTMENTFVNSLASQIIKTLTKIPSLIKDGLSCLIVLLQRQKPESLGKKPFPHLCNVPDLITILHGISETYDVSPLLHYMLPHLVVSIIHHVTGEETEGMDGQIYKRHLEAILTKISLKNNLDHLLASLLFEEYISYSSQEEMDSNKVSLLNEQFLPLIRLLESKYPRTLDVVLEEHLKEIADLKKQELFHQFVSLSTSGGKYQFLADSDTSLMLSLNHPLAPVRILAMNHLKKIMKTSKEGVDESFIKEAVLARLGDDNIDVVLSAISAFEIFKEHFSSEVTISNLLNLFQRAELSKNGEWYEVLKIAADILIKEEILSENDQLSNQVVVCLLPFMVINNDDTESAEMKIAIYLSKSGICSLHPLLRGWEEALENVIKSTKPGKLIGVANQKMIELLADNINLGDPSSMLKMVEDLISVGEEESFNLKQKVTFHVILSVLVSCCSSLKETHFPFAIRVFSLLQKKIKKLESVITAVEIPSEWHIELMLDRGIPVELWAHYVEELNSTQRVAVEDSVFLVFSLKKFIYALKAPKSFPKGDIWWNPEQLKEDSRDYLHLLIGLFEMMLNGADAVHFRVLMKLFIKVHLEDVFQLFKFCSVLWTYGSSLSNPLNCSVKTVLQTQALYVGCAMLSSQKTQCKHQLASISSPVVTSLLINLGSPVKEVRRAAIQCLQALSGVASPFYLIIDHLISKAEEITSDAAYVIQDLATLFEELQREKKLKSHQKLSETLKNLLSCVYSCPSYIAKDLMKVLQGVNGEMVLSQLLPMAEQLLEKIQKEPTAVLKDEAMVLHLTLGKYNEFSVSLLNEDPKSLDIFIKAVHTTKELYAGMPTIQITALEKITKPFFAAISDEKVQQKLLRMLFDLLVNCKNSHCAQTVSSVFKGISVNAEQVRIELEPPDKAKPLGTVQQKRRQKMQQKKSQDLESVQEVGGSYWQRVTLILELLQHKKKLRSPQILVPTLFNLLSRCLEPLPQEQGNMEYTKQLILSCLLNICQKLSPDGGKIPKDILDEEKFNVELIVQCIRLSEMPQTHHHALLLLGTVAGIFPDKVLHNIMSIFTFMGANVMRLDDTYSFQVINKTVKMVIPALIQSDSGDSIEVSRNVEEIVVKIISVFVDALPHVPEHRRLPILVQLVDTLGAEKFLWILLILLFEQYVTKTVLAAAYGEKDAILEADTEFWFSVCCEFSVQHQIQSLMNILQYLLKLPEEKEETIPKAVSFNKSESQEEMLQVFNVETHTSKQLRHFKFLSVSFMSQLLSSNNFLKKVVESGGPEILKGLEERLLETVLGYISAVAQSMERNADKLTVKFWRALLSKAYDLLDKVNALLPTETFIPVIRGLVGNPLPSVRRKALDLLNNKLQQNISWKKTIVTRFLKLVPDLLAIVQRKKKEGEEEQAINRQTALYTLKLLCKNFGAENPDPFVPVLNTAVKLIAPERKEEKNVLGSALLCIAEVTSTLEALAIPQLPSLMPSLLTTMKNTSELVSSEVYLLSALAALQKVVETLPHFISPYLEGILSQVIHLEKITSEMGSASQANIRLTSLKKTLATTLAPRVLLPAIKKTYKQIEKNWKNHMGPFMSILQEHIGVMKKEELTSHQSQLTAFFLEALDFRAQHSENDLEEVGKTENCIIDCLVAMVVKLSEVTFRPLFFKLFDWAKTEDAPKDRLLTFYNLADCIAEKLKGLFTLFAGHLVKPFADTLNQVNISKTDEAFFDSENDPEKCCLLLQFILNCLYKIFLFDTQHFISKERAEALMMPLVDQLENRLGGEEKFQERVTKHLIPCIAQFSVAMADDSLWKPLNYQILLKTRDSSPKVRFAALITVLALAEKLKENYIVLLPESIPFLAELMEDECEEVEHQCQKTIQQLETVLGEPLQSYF
UniProt O43143: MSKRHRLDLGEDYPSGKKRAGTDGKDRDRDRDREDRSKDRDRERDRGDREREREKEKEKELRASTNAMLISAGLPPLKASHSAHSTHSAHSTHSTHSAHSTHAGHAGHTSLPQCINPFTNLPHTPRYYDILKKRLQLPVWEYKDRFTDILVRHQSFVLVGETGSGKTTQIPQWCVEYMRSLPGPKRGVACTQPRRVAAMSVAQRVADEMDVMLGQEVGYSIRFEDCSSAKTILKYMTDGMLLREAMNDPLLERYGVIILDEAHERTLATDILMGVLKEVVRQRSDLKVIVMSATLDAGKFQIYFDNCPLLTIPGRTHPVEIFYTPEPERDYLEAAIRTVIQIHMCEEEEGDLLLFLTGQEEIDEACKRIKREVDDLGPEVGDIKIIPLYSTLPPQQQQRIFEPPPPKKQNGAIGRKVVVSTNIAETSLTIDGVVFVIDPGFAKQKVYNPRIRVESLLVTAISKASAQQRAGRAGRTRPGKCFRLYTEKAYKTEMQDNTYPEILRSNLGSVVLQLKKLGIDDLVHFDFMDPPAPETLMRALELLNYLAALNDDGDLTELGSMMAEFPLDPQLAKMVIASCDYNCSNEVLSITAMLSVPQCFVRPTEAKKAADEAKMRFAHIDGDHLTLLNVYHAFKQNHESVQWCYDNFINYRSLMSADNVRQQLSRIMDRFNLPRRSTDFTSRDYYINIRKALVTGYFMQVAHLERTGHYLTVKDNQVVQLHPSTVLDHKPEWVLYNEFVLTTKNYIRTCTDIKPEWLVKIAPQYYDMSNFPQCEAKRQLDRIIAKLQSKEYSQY

B1: rRNA methyltransferase Nucleolar Protein 2 Homolog (NOP2) (protein, UniProt P46087 1-812)
chain: MGRKLDPTKEKRGPGRKARKQKGAETELVRFLPAVSDENSKRLSSRARKRAAKRRLGSVEAPKTNKSPEAKPLPGKLPKGISAGAVQTAGKKGPQSLFNAPRGKKRPAPGSDEEEEEEDSEEDGMVNHGDLWGSEDDADTVDDYGADSNSEDEEEGEALLPIERAARKQKAREAAAGIQWSEEETEDEEEEKEVTPESGPPKVEEADGGLQINVDEEPFVLPPAGEMEQDAQAPDLQRVHKRIQDIVGILRDFGAQREEGRSRSEYLNRLKKDLAIYYSYGDFLLGKLMDLFPLSELVEFLEANEVPRPVTLRTNTLKTRRRDLAQALINRGVNLDPLGKWSKTGLVVYDSSVPIGATPEYLAGHYMLQGASSMLPVMALAPQEHERILDMCCAPGGKTSYMAQLMKNTGVILANDANAERLKSVVGNLHRLGVTNTIISHYDGRQFPKVVGGFDRVLLDAPCSGTGVISKDPAVKTNKDEKDILRCAHLQKELLLSAIDSVNATSKTGGYLVYCTCSITVEENEWVVDYALKKRNVRLVPTGLDFGQEGFTRFRERRFHPSLRSTRRFYPHTHNMDGFFIAKFKKFSNSIPQSQTGNSETATPTNVDLPQVIPKSENSSQPAKKAKGAAKTKQQLQKQQHPKKASFQKLNGISKGADSELSTVPSVTKTQASSSFQDSSQPAGKAEGIREPKVTGKLKQRSPKLQSSKKVAFLRQNAPPKGTDTQTPAVLSPSKTQATLKPKDHHQPLGRAKGVEKQQLPEQPFEKAAFQKQNDTPKGPQPPTVSPIRSSRPPPAKRKKSQSRGNSQLLLS
B2: rRNA 2'-O-methyltransferase fibrillarin (FBL) (protein, UniProt P22087 1-321)
chain: MKPGFSPRGGGFGGRGGFGDRGGRGGRGGFGGGRGRGGGFRGRGRGGGGGGGGGGGGGRGGGGFHSGGNRGRGRGGKRGNQSGKNVMVEPHRHEGVFICRGKEDALVTKNLVPGESVYGEKRVSISEGDDKIEYRAWNPFRSKLAAAILGGVDQIHIKPGAKVLYLGAASGTTVSHVSDIVGPDGLVYAVEFSHRSGRDLINLAKKRTNIIPVIEDARHPHKYRMLIAMVDVIFADVAQPDQTRIVALNAHTFLRNGGHFVISIKANCIDSTASAEAVFASEVKKMQQENMKPQEQLTLEPYERDHAVVVGVYRPPPKVKN
B3: WDR43 (protein, UniProt Q15061 1-677)
chain: MAAGGGGSCDPLAPAGVPCAFSPHSQAYFALASTDGHLRVWETANNRLHQEYVPSAHLSGTCTCLAWAPARLQAKESPQRKKRKSEAVGMSNQTDLLALGTAVGSILLYSTVKGELHSKLISGGHDNRVNCIQWHQDSGCLYSCSDDKHIVEWNVQTCKVKCKWKGDNSSVSSLCISPDGKMLLSAGRTIKLWVLETKEVYRHFTGHATPVSSLMFTTIRPPNESQPFDGITGLYFLSGAVHDRLLNVWQVRSENKEKSAVMSFTVTDEPVYIDLTLSENKEEPVKLAVVCRDGQVHLFEHILNGYCKKPLTSNCTIQIATPGKGKKSTPKPIPILAAGFCSDKMSLLLVYGSWFQPTIERVALNSREPHMCLVRDISNCWAPKVETAITKVRTPVMNSEAKVLVPGIPGHHAAIKPAPPQTEQVESKRKSGGNEVSIEERLGAMDIDTHKKGKEDLQTNSFPVLLTQGLESNDFEMLNKVLQTRNVNLIKKTVLRMPLHTIIPLLQELTKRLQGHPNSAVLMVQWLKCVLTVHASYLSTLPDLVPQLGTLYQLMESRVKTFQKLSHLHGKLILLITQVTASEKTKGATSPGQKAKLVYEEESSEEESDDEIADKDSEDNWDEDEEESESEKDEDVEEEDEDAEGKDEENGEDRDTASEKELNGDSDLDPENESEEE

Target: T1, FLAG/HA-tagged AATF (apoptosis antagonizing transcription factor) (human)
Test: affinity purification with mass spectrometry; FLAG/HA-AATF from stable inducible HEK 293T Flp-In T-REx cells captured on anti-FLAG beads (uMACS columns), modified RIPA buffer (1% NP-40, 150 mM NaCl, 0.25% sodium deoxycholate, 50 mM Tris), 2 h at 4 °C; compared with FLAG-GFP pulldown; 5 biological replicates; no RNase

binding, binds:
ribosome biogenesis factor HEAT Repeat-Containing Protein 1 (HEATR1) (from UniProt Q9H583 1-2144)
DHX15 (from UniProt O43143 1-795)
B1
B2
B3
